From publication PMC6280682, “The Micronemal Plasmodium Proteins P36 and P52 Act in Concert to Establish the Replication-Permissive Compartment Within Infected Hepatocytes” (Frontiers in Cellular and Infection Microbiology, 2018)

Tests used:
[1] = molecular target: T1, Plasmodium yoelii P52 with a C-terminal 4xMyc tag (P52^myc) (Plasmodium yoelii) (UniProt Q7K5V2); experiment: affinity purification with mass spectrometry; inverse pulldown: P52^myc immunoprecipitated from P52^myc sporozoite lysate with Myc-Trap; Py GFP-Luc sporozoite lysate as wild-type control; mass spectrometry
T1 sequence: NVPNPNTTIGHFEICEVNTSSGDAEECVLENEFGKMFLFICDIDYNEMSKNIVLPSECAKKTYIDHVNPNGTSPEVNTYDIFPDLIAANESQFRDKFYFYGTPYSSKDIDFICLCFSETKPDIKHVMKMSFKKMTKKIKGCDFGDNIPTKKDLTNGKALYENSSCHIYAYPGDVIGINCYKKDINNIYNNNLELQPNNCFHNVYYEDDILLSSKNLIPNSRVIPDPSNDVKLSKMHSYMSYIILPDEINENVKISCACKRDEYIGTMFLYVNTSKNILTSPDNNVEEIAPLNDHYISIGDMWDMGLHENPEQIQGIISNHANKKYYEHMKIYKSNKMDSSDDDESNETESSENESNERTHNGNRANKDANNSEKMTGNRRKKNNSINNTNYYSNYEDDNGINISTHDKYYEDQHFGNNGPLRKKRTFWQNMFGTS

[2] = molecular target: T2, Plasmodium yoelii P36 with a C-terminal mCherry tag (P36^mCherry) (Plasmodium yoelii) (UniProt Q7RPW4); experiment: affinity purification with mass spectrometry; BS3-crosslinked P36^mCherry sporozoite lysate immunoprecipitated with RFP-Trap, S-Trap digest, LC-MS/MS (Q-Exactive HF), spectral counting
T2 sequence: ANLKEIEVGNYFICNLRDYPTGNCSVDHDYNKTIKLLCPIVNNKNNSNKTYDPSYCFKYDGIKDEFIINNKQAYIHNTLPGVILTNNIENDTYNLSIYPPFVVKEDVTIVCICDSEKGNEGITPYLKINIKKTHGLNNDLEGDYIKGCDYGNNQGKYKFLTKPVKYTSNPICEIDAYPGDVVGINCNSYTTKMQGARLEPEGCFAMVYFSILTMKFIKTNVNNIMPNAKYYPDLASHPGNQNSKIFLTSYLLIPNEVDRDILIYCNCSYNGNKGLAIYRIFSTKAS

[3] = molecular target: T2, Plasmodium yoelii P36 with a C-terminal mCherry tag (P36^mCherry) (Plasmodium yoelii); experiment: affinity purification with mass spectrometry; RFP-Trap IP of P36^mCherry from non-crosslinked sporozoite lysate; SDS-PAGE fractions, in-gel tryptic digest, LC-MS/MS, spectral counting against wild-type IP and unconjugated beads

Row | Substance | binding [1] | binding [2] | binding [3]
1 | thrombospondin-related anonymous protein (TRAP), Plasmodium yoelii | no binding |  | 
2 | HSP70-2/BiP, Plasmodium yoelii | binds | binds | binds

Results are given in words; binding and its absence hold for the method and conditions named. Binding seen in cells or lysates may run through a third protein. These calls come from enrichment with a bait or labelling near it, and not all partners need be listed. For some of these results: No binding means not detected with the bait. Sequences can lack the tags named with a protein.
